From patent US20220016215A1, “GIP RECEPTOR AGONIST PEPTIDE COMPOUNDS AND USES THEREOF” (TAKEDA PHAARMACEUTICAL COMPANY LIMITED, priority 2018, published 2022)
Where “and” joins values, the source holds several entries; their conditions need not be identical. Equal entries are not always repeated. At least one peptide structure holds a part that was inferred or is arguable (an end, a ring closure or a residue). Marks after values point to notes of the source that are not given here.

Tested on: morphine (0.6 mg/kg, s.c.)-induced emesis in ferrets
Experiment: Morphine-induced acute emetic model in male ferrets
Format: in vivo, ferret
Procedure: Example 6—In-Vivo Effect of GIP Receptor Agonist Peptides on Emesis in Morphine Induced Emesis Model in Live Male Ferrets
Effect of subcutaneously administered GIP receptor agonist peptide in morphine-induced acute emetic model.
To evaluate the antiemetic effect, the GIP receptor agonist peptides other than natural human GIP were subcutaneously administered into male ferrets 30 minutes before morphine administration. […]. Up to 60 minutes after morphine administration, the condition of the ferrets was monitored to record the frequencies and time points of abdominal contraction motions, vomiting behaviors, licking with the tongue, and fidgety behavior occurring
Effects of Subcutaneously Administered GIP Receptor Agonist Peptides in Morphine-Induced Acute Emetic Model
30 nmol/kg of Compounds 3 and 5 were dissolved with a vehicle (0.09 w/v % tween 80/10% DMSO/saline), respectively, to prepare test solutions. […] of the test solutions and the vehicle were subcutaneously administered to ferrets (4 in each group), respectively. At the time of each of 4 hours, after administration, 0.6 mg/kg of morphine was subcutaneously administered. […] See results in Tables 6, 7 and 8.
(§1) 10 nmol/kg of each compound dissolved with a vehicle (0.09 w/v % tween 80/10% DMSO/saline) respectively, to prepare test solutions. […] of the test solutions and the vehicle were subcutaneously administered to ferrets (4 in each group), respectively. At the time of each of 4 hours, or 120 hours after administration, 0.6 mg/kg of morphine was subcutaneously administered. Up to 360 minutes after morphine administration, the condition of the ferrets was monitored to record the frequencies and time points of abdominal contraction motions, vomiting behaviors, licking with the tongue, and fidgety behavior occurring.
as §1, with “30 nmol/kg” for “10 nmol/kg”, “80/10% DMSO/saline),respectively,” for “80/10% DMSO/saline) respectively,”

[1] = ferrets, 30 nmol/kg s.c., morphine (0.6 mg/kg, s.c.)-induced emesis, individual animals and Mean
[2] = ferrets, morphine 0.6 mg/kg s.c. 4 h after drug, 30 nmol/kg s.c.
[3] = ferrets, morphine 0.6 mg/kg s.c. 4 h after drug, 30 nmol/kg s.c., non-responders counted as 30 min

CC[C@H](C)[C@H](NC(=O)[C@H](CC(C)C)NC(=O)[C@H](Cc1c[nH]c2ccccc12)NC(=O)[C@H](CCC(N)=O)NC(=O)[C@@H](NC(=O)[C@H](Cc1ccccc1)NC(=O)[C@H](C)NC(=O)[C@H](CCCNC(=N)N)NC(=O)[C@H](CCC(N)=O)NC(=O)[C@H](C)NC(=O)[C@@H](NC(=O)[C@H](CCCCN)NC(=O)[C@H](CC(=O)O)NC(=O)[C@H](CC(C)C)NC(=O)C(C)(C)NC(=O)[C@@H](NC(=O)[C@H](CO)NC(=O)[C@H](Cc1ccc(O)cc1)NC(=O)[C@H](CC(=O)O)NC(=O)[C@H](CO)NC(=O)[C@@H](NC(=O)[C@H](Cc1ccccc1)NC(=O)[C@@H](NC(=O)CNC(=O)[C@H](CCC(=O)O)NC(=O)C(C)(C)NC(=O)[C@@H](N)Cc1ccc(O)cc1)[C@@H](C)O)[C@@H](C)O)[C@@H](C)CC)[C@@H](C)CC)C(C)C)C(=O)N[C@@H](C)C(=O)NC(C)(C)C(=O)N[C@@H](CCCCN)C(=O)NCC(=O)N[C@@H](CCCCN)C(=O)N[C@@H](CCCCN)C(=O)N[C@@H](CCC(N)=O)C(=O)N[C@@H](CCC(=O)O)C(=O)N[C@@H](Cc1c[nH]c2ccccc12)C(=O)N[C@@H](CCCCN)C(=O)N[C@@H](Cc1c[nH]cn1)C(=O)N[C@@H](CCC(N)=O)C(=O)N[C@H](C(=O)N[C@H](C(=O)N[C@@H](CCC(N)=O)C(=O)N[C@@H](CCCCNC(C)=O)C(N)=O)[C@@H](C)O)[C@@H](C)CC [Compound 16]
100% inhibition: Comment: Anti-Emetic Activity (inhibition) on morphine-induced emesis (male ferrets, summary of the morphine experiments)
0 (4×) and 0.0: Emesis (Retching + Vomiting) Frequency [1] | Fidget Frequency [1] | Licking Frequency [1] | Retching Frequency [1] | Vomiting Frequency [1]
30 min (4×) and 30.0 min: Emesis (Retching + Vomiting) Latency [1] | Fidget Latency [1] | Licking Latency [1] | Retching Latency [1] | Vomiting Latency [1]
0 min (4×) and 0.0 min: Emesis (Retching + Vomiting) Duration [1] | Fidget Duration [1] | Licking Duration [1] | Retching Duration [1] | Vomiting Duration [1]
0/4 #: Emesis: No. of animals (responder/used) [2] | Fidget: No. of animals (responder/used) [2] | Licking: No. of animals (responder/used) [2] | Retching: No. of animals (responder/used) [2] | Vomiting: No. of animals (responder/used) [2]
0.0 ± 0.0: Emesis: Frequency [2] | Fidget: Frequency [2] | Licking: Frequency [2] | Retching: Frequency [2] | Vomiting: Frequency [2]
30.0 ± 0.0 min: Emesis: Latency [3] | Fidget: Latency [3] | Licking: Latency [3] | Retching: Latency [3] | Vomiting: Latency [3]
0.0 ± 0.0 min: Emesis: Duration [2] | Fidget: Duration [2] | Licking: Duration [2] | Retching: Duration [2] | Vomiting: Duration [2]
